Laboratory results: PubChem BioAssay AID1224828 (NIAID, 2016)
This is an unselected part of about 17,000 reagents tested. In the full data, 762 (4.5%) were called active. 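Active calls include both raised and lowered p65 entry, mostly lowered; wells with fewer than 50 cells lack a z-score.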 The raw values are shown without normalisation.

Test: 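Find genes required for NF-kappaB p65 moving into the nucleus after LPS in mouse macrophages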 (primary screen)
System: mouse RAW264.7 G9 macrophage reporter cells (GFP-p65, Tnf promoter-mCherry)
Knock-down reagent: siRNA pool against mouse genes, 100 nM
Duration: 2 days siRNA transfection, then 40 min LPS before fixation
Treatment: LPS (Salmonella minnesota R595) at 10 ng/ml
Read-out: 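Imaged p65 nuclear translocation ratio, normalised to the plate median, converted to robust z-scores and averaged across two replicates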
Direction: p65 translocation robust z-score: higher = more nuclear NF-kappaB p65 after LPS than the plate median; nuclear/cytoplasmic p65 ratio: higher = more nuclear NF-kappaB p65
Call rule: 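Active if robust z is above 3.3 (negative regulators) or below -1.56, the Tlr4 control median (positive regulators); activity score 50 or more; control wells not called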
Calls: active = hit (p65 shift raised or lowered); inactive = no clear change

| gene symbol | p65 translocation robust z-score | nuclear/cytoplasmic p65 ratio, rep 1 | nuclear/cytoplasmic p65 ratio, rep 2 | low cell count flag | outcome |
| --- | --- | --- | --- | --- | --- |
| Erbb2 (erb-b2 receptor tyrosine kinase 2) | -0.29 | 1.56 | 1.41 | enough cells to score | inactive |
| Etv2 (ets variant 2) | 2.18 | 1.89 | 1.78 | enough cells to score | inactive |
| Tom1 (target of myb1 trafficking protein) | -0.06 | 1.57 | 1.46 | enough cells to score | inactive |
| Pfkfb2 (6-phosphofructo-2-kinase/fructose-2,6-biphosphatase 2) | -0.17 | 1.63 | 1.38 | enough cells to score | inactive |
| Uros (uroporphyrinogen III synthase) | -1.36 | 1.29 | 1.34 | enough cells to score | inactive |
| Rybp (RING1 and YY1 binding protein) | -0.63 | 1.45 | 1.41 | enough cells to score | inactive |
| Slc67a2 | – | 1.07 | 1.26 | fewer than 50 cells per well; well left out of scoring | inactive |
| Atad3aos (ATPase family, AAA domain containing 3A, opposite strand) | – | 1.16 | 1.24 | fewer than 50 cells per well; well left out of scoring | inactive |
| Sgta | 0.24 | 1.53 | 1.2 | enough cells to score | inactive |
| Ripk1 (receptor (TNFRSF)-interacting serine-threonine kinase 1) | -0.36 | 1.71 | 1.27 | enough cells to score | inactive |
| Klc3 (kinesin light chain 3) | 0.16 | 1.46 | 1.43 | enough cells to score | inactive |
| Lime1 (Lck interacting transmembrane adaptor 1) | 1.27 | 1.57 | 1.38 | enough cells to score | inactive |
| Tssk5 (testis-specific serine kinase 5) | – | 1.46 | 1.38 | fewer than 50 cells per well; well left out of scoring | inactive |
| Cct5 (chaperonin containing TCP1 subunit 5) | -1.27 | 1.24 | 1.22 | enough cells to score | inactive |
| Cdk16 (cyclin dependent kinase 16) | -0.58 | 1.67 | 1.24 | enough cells to score | inactive |
| Hnrnpul1 (heterogeneous nuclear ribonucleoprotein U-like 1) | 0.21 | 1.48 | 1.39 | enough cells to score | inactive |
| Etnk2 (ethanolamine kinase 2) | – | 1.66 | 1.19 | fewer than 50 cells per well; well left out of scoring | inactive |
| Akr1b7 (aldo-keto reductase family 1, member B7) | -2.47 | 1.23 | 1.31 | enough cells to score | active |
| Prkcz (protein kinase C, zeta) | 0.28 | 1.73 | 1.41 | enough cells to score | inactive |
| Klhl8 (kelch-like 8) | 2.23 | 1.89 | 1.71 | enough cells to score | inactive |
| Ssr3 (signal sequence receptor, gamma) | -0.21 | 1.44 | 1.6 | enough cells to score | inactive |
| Me3 (malic enzyme 3, NADP(+)-dependent, mitochondrial) | 0.05 | 1.53 | 1.59 | enough cells to score | inactive |
| Endod1 (endonuclease domain containing 1) | – | 1.4 | 1.25 | fewer than 50 cells per well; well left out of scoring | inactive |
| Vps35 (VPS35 retromer complex component) | 1.42 | 1.53 | 1.42 | enough cells to score | inactive |
| Vps13b (vacuolar protein sorting 13B) | 1.62 | 1.68 | 1.72 | enough cells to score | inactive |
| Vmn1r229 (vomeronasal 1 receptor 229) | -0.42 | 1.33 | 1.18 | enough cells to score | inactive |
| Lgalsl (galectin like) | -1.37 | 1.32 | 1.24 | enough cells to score | inactive |
| Tnpo2 (transportin 2 (importin 3, karyopherin beta 2b)) | – | 1.1 | 1.21 | fewer than 50 cells per well; well left out of scoring | inactive |
| Ddx18 (DEAD box helicase 18) | -0.15 | 1.43 | 1.39 | enough cells to score | inactive |
| St7 (suppression of tumorigenicity 7) | -0.23 | 1.39 | 1.14 | enough cells to score | inactive |
| Elob (elongin B) | -0.31 | 1.45 | 1.5 | enough cells to score | inactive |
| Adipor2 (adiponectin receptor 2) | 0.12 | 1.52 | 1.63 | enough cells to score | inactive |
| Trpc2 | -0.56 | 1.32 | 1.13 | enough cells to score | inactive |
| Trir (telomerase RNA component interacting RNase) | – | 1.5 | 1.69 | fewer than 50 cells per well; well left out of scoring | inactive |
| Miip (migration and invasion inhibitory protein) | -0.51 | 1.51 | 1.46 | enough cells to score | inactive |
| Fibcd1 (fibrinogen C domain containing 1) | 0.12 | 1.59 | 1.74 | enough cells to score | inactive |
| Galnt12 (polypeptide N-acetylgalactosaminyltransferase 12) | – | 1.11 | 1.18 | fewer than 50 cells per well; well left out of scoring | inactive |
| 2810408A11Rik (RIKEN cDNA 2810408A11 gene) | – | 1.24 | 1.36 | fewer than 50 cells per well; well left out of scoring | inactive |

Next part (7 carried over from the part before).
| gene symbol | p65 translocation robust z-score | nuclear/cytoplasmic p65 ratio, rep 1 | nuclear/cytoplasmic p65 ratio, rep 2 | low cell count flag | outcome |
| --- | --- | --- | --- | --- | --- |
| Adipor2 (adiponectin receptor 2) | 0.12 | 1.52 | 1.63 | enough cells to score | inactive |
| Trpc2 | -0.56 | 1.32 | 1.13 | enough cells to score | inactive |
| Trir (telomerase RNA component interacting RNase) | – | 1.5 | 1.69 | fewer than 50 cells per well; well left out of scoring | inactive |
| Miip (migration and invasion inhibitory protein) | -0.51 | 1.51 | 1.46 | enough cells to score | inactive |
| Fibcd1 (fibrinogen C domain containing 1) | 0.12 | 1.59 | 1.74 | enough cells to score | inactive |
| Galnt12 (polypeptide N-acetylgalactosaminyltransferase 12) | – | 1.11 | 1.18 | fewer than 50 cells per well; well left out of scoring | inactive |
| 2810408A11Rik (RIKEN cDNA 2810408A11 gene) | – | 1.24 | 1.36 | fewer than 50 cells per well; well left out of scoring | inactive |
| Cldn10 (claudin 10) | 1.53 | 1.7 | 1.55 | enough cells to score | inactive |
| Rps4x (ribosomal protein S4, X-linked) | -0.27 | 1.56 | 1.4 | enough cells to score | inactive |
| Itgae (integrin alpha E, epithelial-associated) | -0.78 | 1.36 | 1.29 | enough cells to score | inactive |
| Acsl1 (acyl-CoA synthetase long-chain family member 1) | – | 1.19 | 1.38 | fewer than 50 cells per well; well left out of scoring | inactive |
| Polr3gl (polymerase (RNA) III (DNA directed) polypeptide G like) | – | 1.33 | 1.22 | fewer than 50 cells per well; well left out of scoring | inactive |
| Oas1d (2'-5' oligoadenylate synthetase 1D) | -0.4 | 1.7 | 1.43 | enough cells to score | inactive |
| Cibar1 (CBY1 interacting BAR domain containing 1) | 1.7 | 1.64 | 1.8 | enough cells to score | inactive |
| Cadm1 (cell adhesion molecule 1) | 0.13 | 1.56 | 1.27 | enough cells to score | inactive |
| 2310067E19Rik (RIKEN cDNA 2310067E19 gene) | -2.13 | 1.09 | 1.01 | enough cells to score | active |
| Adra2c (adrenergic receptor, alpha 2c) | 0.49 | 1.51 | 1.72 | enough cells to score | inactive |
| Tmem101 (transmembrane protein 101) | 0.36 | 1.46 | 1.5 | enough cells to score | inactive |
| Il36rn (interleukin 36 receptor antagonist) | -0.11 | 1.43 | 1.39 | enough cells to score | inactive |
| Arfrp1 (ARF related protein 1) | -0.68 | 1.43 | 1.6 | enough cells to score | inactive |
| Tctn3 (tectonic family member 3) | – | 1.5 | 1.78 | fewer than 50 cells per well; well left out of scoring | inactive |
| Timm21 (translocase of inner mitochondrial membrane 21) | 0.03 | 1.6 | 1.64 | enough cells to score | inactive |
| Rxfp3 (relaxin family peptide receptor 3) | -0.71 | 1.46 | 1.42 | enough cells to score | inactive |
| Gpr33 (G protein-coupled receptor 33) | 1.35 | 1.76 | 1.75 | enough cells to score | inactive |
| Psmb8 | – | 1.44 | 1.34 | fewer than 50 cells per well; well left out of scoring | inactive |
| Asb13 (ankyrin repeat and SOCS box-containing 13) | -0.41 | 1.58 | 1.41 | enough cells to score | inactive |
| Noc3l (NOC3 like DNA replication regulator) | 0.08 | 1.5 | 1.82 | enough cells to score | inactive |
| Hrob (homologous recombination factor with OB-fold) | 0.07 | 1.53 | 1.92 | enough cells to score | inactive |
